Measurements taken from the supplement of paper PMC10849652.
The list shows a part of the results.

By UniProt entry, the sequences of proteins in these tests, tags left out. Where a name states a change or a piece, a line headed by the entry shows the natural chain unless it says otherwise.
UniProt Q13029: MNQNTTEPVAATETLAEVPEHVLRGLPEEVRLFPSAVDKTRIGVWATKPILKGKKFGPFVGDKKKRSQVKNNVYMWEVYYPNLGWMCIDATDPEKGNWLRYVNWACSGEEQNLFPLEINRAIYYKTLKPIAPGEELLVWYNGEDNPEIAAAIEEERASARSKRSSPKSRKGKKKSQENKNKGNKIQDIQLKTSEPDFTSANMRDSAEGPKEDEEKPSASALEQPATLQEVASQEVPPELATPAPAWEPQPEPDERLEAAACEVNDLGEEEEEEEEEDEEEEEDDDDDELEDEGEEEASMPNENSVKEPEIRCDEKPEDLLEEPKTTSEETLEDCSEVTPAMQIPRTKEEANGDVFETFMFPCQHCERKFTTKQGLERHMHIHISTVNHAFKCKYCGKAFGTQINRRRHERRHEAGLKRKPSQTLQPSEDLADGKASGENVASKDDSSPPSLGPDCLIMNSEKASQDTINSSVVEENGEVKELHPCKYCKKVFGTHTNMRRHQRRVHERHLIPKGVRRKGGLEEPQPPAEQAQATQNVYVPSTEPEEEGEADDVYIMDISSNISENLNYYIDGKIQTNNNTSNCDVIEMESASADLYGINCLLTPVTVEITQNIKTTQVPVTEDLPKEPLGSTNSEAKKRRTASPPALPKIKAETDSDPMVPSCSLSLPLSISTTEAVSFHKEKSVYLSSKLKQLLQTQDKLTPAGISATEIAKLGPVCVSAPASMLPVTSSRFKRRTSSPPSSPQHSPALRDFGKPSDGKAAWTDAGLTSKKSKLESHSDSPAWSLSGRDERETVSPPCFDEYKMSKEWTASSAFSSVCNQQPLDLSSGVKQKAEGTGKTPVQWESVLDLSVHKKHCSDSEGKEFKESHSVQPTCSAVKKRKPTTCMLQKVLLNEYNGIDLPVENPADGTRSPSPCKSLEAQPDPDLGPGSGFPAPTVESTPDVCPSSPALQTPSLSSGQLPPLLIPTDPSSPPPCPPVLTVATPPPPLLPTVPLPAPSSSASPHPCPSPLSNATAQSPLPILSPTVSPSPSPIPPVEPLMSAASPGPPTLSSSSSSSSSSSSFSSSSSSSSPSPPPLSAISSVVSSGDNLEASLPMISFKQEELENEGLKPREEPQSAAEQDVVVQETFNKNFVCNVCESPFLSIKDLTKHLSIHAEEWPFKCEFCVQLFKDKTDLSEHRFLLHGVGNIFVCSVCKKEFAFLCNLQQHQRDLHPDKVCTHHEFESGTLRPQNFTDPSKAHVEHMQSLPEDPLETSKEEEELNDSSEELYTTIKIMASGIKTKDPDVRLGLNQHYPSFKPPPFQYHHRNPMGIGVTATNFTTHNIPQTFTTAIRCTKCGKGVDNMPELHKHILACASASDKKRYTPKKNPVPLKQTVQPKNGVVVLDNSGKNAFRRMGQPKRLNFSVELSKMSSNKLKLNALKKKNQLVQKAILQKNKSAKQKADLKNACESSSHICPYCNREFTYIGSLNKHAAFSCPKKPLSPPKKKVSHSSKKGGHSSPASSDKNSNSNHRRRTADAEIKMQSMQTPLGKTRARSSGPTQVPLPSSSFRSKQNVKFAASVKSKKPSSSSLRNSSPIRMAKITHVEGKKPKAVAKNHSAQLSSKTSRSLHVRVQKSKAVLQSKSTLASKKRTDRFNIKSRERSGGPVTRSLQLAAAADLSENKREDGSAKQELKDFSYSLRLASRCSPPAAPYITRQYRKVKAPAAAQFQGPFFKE
UniProt Q6NYC8: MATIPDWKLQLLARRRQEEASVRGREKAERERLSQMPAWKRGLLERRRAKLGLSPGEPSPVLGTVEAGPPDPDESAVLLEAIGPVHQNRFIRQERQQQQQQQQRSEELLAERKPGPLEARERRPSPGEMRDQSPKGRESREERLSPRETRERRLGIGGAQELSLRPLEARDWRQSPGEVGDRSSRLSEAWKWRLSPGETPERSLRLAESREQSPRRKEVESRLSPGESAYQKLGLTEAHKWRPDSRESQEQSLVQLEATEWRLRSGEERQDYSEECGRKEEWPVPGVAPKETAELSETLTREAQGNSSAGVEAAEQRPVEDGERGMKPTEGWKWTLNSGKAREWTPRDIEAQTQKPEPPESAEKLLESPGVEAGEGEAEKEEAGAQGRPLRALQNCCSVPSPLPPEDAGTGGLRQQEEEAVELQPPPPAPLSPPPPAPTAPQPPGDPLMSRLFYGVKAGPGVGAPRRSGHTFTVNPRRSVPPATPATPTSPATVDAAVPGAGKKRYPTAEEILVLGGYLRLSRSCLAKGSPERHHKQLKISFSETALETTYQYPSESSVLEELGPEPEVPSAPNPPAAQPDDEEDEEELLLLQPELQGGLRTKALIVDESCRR
UniProt Q96I34: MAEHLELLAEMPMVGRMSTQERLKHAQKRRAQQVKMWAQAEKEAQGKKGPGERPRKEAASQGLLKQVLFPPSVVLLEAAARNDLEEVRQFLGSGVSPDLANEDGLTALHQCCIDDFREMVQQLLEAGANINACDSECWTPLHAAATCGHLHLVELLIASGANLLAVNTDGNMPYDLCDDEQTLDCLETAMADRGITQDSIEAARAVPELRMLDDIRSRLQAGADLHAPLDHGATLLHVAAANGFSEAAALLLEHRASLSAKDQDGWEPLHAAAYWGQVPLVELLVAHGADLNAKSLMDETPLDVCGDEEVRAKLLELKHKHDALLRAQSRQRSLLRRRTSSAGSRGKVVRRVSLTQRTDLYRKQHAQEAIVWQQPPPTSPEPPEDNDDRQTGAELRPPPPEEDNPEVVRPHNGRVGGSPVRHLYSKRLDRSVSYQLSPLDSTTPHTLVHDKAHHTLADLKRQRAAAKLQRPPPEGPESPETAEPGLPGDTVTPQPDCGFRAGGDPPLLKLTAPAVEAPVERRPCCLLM
UniProt P35813: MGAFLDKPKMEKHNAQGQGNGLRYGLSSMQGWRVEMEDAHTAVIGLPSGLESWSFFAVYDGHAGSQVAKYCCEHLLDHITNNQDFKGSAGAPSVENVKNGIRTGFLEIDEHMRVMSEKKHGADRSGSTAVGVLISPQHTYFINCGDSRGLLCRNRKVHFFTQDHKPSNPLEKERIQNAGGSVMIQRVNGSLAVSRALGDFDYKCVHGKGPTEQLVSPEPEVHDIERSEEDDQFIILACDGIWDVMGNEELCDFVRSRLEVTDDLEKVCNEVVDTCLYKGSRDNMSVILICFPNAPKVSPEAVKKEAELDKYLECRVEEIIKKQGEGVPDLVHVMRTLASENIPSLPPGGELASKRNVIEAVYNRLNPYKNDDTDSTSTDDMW
UniProt Q9ULR3: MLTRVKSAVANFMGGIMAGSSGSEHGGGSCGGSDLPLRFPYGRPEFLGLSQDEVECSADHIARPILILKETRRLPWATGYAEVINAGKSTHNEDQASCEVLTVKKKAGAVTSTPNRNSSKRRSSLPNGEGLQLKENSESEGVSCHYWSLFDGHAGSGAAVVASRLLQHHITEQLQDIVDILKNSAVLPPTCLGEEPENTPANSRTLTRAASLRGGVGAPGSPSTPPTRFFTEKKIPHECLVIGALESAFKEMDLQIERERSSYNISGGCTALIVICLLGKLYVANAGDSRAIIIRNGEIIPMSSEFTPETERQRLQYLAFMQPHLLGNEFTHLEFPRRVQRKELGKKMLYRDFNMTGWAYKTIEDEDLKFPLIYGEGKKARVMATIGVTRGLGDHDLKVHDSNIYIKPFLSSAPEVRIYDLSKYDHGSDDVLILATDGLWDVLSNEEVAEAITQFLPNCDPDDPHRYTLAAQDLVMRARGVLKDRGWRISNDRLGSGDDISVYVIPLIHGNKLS
UniProt Q6P2P2: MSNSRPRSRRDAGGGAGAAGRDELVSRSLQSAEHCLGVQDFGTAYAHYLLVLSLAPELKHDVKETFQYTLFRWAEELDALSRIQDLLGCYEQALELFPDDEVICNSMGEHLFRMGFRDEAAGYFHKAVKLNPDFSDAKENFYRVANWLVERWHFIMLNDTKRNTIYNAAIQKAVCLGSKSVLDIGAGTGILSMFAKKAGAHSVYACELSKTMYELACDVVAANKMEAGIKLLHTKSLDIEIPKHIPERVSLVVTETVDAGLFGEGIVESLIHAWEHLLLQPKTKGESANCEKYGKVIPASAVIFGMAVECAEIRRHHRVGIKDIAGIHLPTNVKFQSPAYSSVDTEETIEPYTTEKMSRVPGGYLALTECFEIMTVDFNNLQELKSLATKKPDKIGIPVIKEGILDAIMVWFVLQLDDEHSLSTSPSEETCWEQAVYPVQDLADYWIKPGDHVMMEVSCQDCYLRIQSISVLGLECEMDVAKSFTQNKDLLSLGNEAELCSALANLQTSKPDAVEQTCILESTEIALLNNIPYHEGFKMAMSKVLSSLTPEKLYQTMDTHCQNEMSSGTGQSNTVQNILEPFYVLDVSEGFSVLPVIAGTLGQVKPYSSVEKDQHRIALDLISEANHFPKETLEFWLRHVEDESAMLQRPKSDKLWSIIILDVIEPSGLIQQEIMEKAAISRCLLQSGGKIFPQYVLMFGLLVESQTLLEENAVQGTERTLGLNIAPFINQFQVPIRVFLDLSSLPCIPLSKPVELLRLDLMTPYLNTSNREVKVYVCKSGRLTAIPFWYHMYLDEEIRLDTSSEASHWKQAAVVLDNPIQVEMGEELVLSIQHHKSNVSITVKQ
UniProt P42785: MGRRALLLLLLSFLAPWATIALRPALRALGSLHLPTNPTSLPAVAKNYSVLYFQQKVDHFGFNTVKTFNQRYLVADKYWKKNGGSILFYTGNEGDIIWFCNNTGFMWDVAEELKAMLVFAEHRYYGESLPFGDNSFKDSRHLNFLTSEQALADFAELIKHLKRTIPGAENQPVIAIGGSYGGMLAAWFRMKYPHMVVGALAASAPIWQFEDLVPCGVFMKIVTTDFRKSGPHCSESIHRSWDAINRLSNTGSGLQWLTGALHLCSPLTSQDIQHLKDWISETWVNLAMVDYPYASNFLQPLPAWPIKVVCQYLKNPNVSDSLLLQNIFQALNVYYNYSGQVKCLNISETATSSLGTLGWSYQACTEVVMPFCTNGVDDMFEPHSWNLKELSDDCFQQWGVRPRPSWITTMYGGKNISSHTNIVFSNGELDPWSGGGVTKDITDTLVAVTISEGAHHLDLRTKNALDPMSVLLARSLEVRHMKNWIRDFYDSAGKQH
UniProt O94806: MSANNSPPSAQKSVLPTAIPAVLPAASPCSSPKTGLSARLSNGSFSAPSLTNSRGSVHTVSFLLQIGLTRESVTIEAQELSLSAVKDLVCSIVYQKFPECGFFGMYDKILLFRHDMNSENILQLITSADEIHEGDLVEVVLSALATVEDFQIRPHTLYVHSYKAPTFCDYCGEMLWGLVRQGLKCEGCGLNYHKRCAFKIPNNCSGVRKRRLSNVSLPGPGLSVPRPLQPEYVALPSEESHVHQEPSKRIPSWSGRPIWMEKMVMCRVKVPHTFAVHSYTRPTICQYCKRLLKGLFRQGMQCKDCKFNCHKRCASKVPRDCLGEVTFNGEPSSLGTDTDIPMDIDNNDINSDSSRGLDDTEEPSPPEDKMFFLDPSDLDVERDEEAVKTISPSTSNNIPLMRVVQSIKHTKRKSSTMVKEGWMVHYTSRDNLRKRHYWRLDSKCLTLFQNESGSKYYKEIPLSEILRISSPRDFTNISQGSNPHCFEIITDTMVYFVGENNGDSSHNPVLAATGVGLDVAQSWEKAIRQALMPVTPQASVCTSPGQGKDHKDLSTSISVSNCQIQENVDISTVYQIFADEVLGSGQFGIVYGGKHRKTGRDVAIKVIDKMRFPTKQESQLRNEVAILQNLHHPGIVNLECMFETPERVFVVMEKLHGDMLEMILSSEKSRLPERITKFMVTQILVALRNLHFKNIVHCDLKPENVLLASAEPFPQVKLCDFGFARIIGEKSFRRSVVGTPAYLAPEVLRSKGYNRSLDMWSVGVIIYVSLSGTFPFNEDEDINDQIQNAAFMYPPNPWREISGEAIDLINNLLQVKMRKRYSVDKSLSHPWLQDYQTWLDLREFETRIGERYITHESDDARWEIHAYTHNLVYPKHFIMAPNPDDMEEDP
UniProt P31323, whole entry, looked up: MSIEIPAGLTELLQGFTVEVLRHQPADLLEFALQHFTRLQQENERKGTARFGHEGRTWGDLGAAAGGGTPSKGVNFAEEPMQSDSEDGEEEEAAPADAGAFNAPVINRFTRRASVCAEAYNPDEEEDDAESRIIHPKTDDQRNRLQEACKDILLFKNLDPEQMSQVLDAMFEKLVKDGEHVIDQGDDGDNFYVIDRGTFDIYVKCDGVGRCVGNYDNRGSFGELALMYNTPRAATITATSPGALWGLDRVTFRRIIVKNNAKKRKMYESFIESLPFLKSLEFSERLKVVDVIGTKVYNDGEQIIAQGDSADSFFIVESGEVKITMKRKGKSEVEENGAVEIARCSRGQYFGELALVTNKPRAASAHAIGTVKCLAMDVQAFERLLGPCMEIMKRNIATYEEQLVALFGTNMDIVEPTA
UniProt Q9H875: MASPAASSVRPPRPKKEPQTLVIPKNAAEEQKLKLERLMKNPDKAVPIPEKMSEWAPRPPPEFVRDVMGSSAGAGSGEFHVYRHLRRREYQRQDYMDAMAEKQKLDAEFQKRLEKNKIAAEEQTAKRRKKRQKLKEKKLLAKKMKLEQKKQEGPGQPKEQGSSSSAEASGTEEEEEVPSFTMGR

Columns and labels:
Assay in all cases: log2 fold change, soluble protein after heating vs DMSO (PISA); higher = thermal stabilisation; K562 lysate, 10 uM; active = over 0.2 and 3.5 SD of the protein, either way, in both replicates (recomputed)
alvocidib = compound: CN1CC[C@H](c2c(O)cc(O)c3c(=O)cc(-c4ccccc4Cl)oc23)[C@H](O)C1 [alvocidib]
Method in brief: (§1)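 Soluble protein was defined as the supernatant remaining after 21,000xg for 90 min, following pooling of heated aliquots and adjustment to 0.5% NP-40 at 4°C. Before that, crude K562 extract at 1 mg/mL protein in PBS pH 7.4 with 1 mM MgCl2 was treated with 10 μM compound for 30 min and heated for 3 min across 48°C-58°C. Quantification used TMTpro 16plex LC-MS/MS with channel sums equalised, and values are log-two fold changes in thermal stability relative to solvent controls from duplicates.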

Tubastatin A = compound: CN1CCc2c(c3ccccc3n2Cc2ccc(C(=O)NO)cc2)C1 [Tubastatin A]
Method in brief: as §1

[1] = compound: CNC(=O)C1=CC=CC=C1NC2=NC(=NC=C2Cl)NC3=C(C=C(C=C3)N4CCOCC4)OC
Method in brief: as §1

defactinib = compound: CNC(=O)c1ccc(Nc2ncc(C(F)(F)F)c(NCc3nccnc3N(C)S(C)(=O)=O)n2)cc1 [defactinib]
Method in brief: as §1

[2] = compound: CNc1nc(-c2ccc3c(N)n[nH]c3c2)cc(N2C[C@@H](C(=O)NC3CCCCC3)CC[C@H]2C)n1
Method in brief: as §1

encorafenib = compound: COC(=O)N[C@@H](C)CNc1nccc(-c2cn(C(C)C)nc2-c2cc(Cl)cc(NS(C)(=O)=O)c2F)n1 [encorafenib]
Method in brief: as §1

[3] = compound: COC(=O)[C@H](CCSC)NC(=O)C1=C(C=C(C=C1)NC[C@H](CS)N)C2=CC=CC=C2
Method in brief: as §1

alisertib = compound: COc1cc(Nc2ncc3c(n2)-c2ccc(Cl)cc2C(c2c(F)cccc2OC)=NC3)ccc1C(=O)O [alisertib]
Method in brief: as §1

[4] = compound: COc1cc2nc(-c3cc(F)ccc3O)nc(N[C@@H]3CNC[C@H]3C(C)(C)O)c2cc1OC
Method in brief: as §1

gefitinib = compound: COc1cc2ncnc(Nc3ccc(F)c(Cl)c3)c2cc1OCCCN1CCOCC1 [gefitinib]
Method in brief: as §1

PRDX5 (UniProt P30044)
log2 fold change (alvocidib): inactive: 0.032 | log2 fold change (Tubastatin A): inactive: 0.036 | log2 fold change [1]: inactive: -0.007 | log2 fold change (defactinib): inactive: 0.01 | log2 fold change [2]: inactive: 0.013 | log2 fold change (encorafenib): inactive: -0.009 | log2 fold change [3]: inactive: -0.019 | log2 fold change (alisertib): inactive: 0 | log2 fold change [4]: inactive: 0.002 | log2 fold change (gefitinib): inactive: -0.016

PPP6R1 (UniProt Q9UPN7)
log2 fold change (alvocidib): inactive: -0.003 | log2 fold change (Tubastatin A): inactive: -0.055 | log2 fold change [1]: inactive: 0.054 | log2 fold change (defactinib): inactive: 0.004 | log2 fold change [2]: inactive: 0.022 | log2 fold change (encorafenib): inactive: 0.03 | log2 fold change [3]: inactive: -0.071 | log2 fold change (alisertib): inactive: -0.004 | log2 fold change [4]: inactive: -0.013 | log2 fold change (gefitinib): inactive: 0.006

PPP2R5C isoform 2 (UniProt Q13362)
log2 fold change (alvocidib): inactive: -0.004 | log2 fold change (Tubastatin A): inactive: 0.044 | log2 fold change [1]: inactive: -0.028 | log2 fold change (defactinib): inactive: -0.024 | log2 fold change [2]: inactive: 0.001 | log2 fold change (alisertib): inactive: 0.058 | log2 fold change (gefitinib): inactive: -0.062

PRDM2 (UniProt Q13029)
log2 fold change (alvocidib): inactive: 0.006 | log2 fold change (Tubastatin A): inactive: 0.036 | log2 fold change [1]: inactive: -0.04 | log2 fold change (defactinib): inactive: -0.024 | log2 fold change [2]: inactive: 0.19 | log2 fold change [4]: inactive: 0.01

PPP1R18 (UniProt Q6NYC8)
log2 fold change (alvocidib): inactive: 0 | log2 fold change (Tubastatin A): inactive: 0.022 | log2 fold change [1]: inactive: 0.025 | log2 fold change (defactinib): inactive: 0.002 | log2 fold change [2]: inactive: 0.055 | log2 fold change (encorafenib): inactive: 0.015 | log2 fold change [3]: inactive: 0.006 | log2 fold change (alisertib): inactive: 0.011 | log2 fold change [4]: inactive: 0.009 | log2 fold change (gefitinib): inactive: 0.027

PPP1R16A (UniProt Q96I34)
log2 fold change (alvocidib): inactive: -0.209 | log2 fold change (Tubastatin A): inactive: -0.08 | log2 fold change [1]: inactive: 0.12 | log2 fold change (defactinib): inactive: 0.106 | log2 fold change (encorafenib): inactive: 0.058 | log2 fold change [3]: inactive: -0.093 | log2 fold change [4]: inactive: 0.089

PPP1R10 (UniProt Q96QC0)
log2 fold change (alvocidib): inactive: -0.025 | log2 fold change (Tubastatin A): inactive: -0.033 | log2 fold change [1]: inactive: 0.034 | log2 fold change (defactinib): inactive: 0.008 | log2 fold change [2]: inactive: 0.028 | log2 fold change (encorafenib): inactive: 0.086 | log2 fold change [3]: inactive: -0.028 | log2 fold change (alisertib): inactive: 0.014 | log2 fold change [4]: inactive: 0.003 | log2 fold change (gefitinib): inactive: 0.003

PPM1A isoform 3 (UniProt P35813)
log2 fold change (alvocidib): inactive: -0.003 | log2 fold change (Tubastatin A): inactive: -0.06 | log2 fold change [1]: inactive: -0.006 | log2 fold change (defactinib): inactive: -0.106 | log2 fold change [2]: inactive: 0.026 | log2 fold change (encorafenib): inactive: -0.003 | log2 fold change [3]: inactive: 0.065 | log2 fold change (alisertib): inactive: 0.007 | log2 fold change [4]: inactive: 0.021 | log2 fold change (gefitinib): inactive: 0.053

PPM1H (UniProt Q9ULR3)
log2 fold change (alvocidib): inactive: -0.046 | log2 fold change (Tubastatin A): inactive: 0.071 | log2 fold change [1]: inactive: 0.006 | log2 fold change (defactinib): inactive: -0.03 | log2 fold change [2]: inactive: 0.078 | log2 fold change (encorafenib): inactive: -0.008 | log2 fold change [3]: inactive: -0.028 | log2 fold change [4]: inactive: 0.05

PRKACB isoform 2 (UniProt P22694)
log2 fold change (alvocidib): inactive: 0.006 | log2 fold change (Tubastatin A): inactive: 0.003 | log2 fold change [1]: inactive: 0.011 | log2 fold change (defactinib): inactive: 0.117 | log2 fold change [2]: inactive: 0.118 | log2 fold change (encorafenib): inactive: -0.018 | log2 fold change [3]: inactive: -0.05 | log2 fold change (alisertib): inactive: 0 | log2 fold change [4]: active: 0.51 | log2 fold change (gefitinib): inactive: 0.006

PRMT9 (UniProt Q6P2P2)
log2 fold change (alvocidib): inactive: -0.032 | log2 fold change (Tubastatin A): inactive: -0.031 | log2 fold change [1]: inactive: -0.002 | log2 fold change (defactinib): inactive: -0.015 | log2 fold change [2]: inactive: -0.018 | log2 fold change (encorafenib): inactive: 0.001 | log2 fold change [3]: inactive: 0.01 | log2 fold change (alisertib): inactive: -0.018 | log2 fold change [4]: inactive: 0.011 | log2 fold change (gefitinib): inactive: 0.014

PROSER1 (UniProt Q86XN7)
log2 fold change (alvocidib): inactive: -0.177 | log2 fold change (Tubastatin A): inactive: -0.162 | log2 fold change [1]: inactive: -0.287 | log2 fold change (defactinib): inactive: 0.132 | log2 fold change [2]: inactive: -0.182 | log2 fold change (alisertib): inactive: 0.037 | log2 fold change [4]: inactive: -0.044 | log2 fold change (gefitinib): inactive: -0.004

PRCP (UniProt P42785)
log2 fold change (alvocidib): inactive: -0.012 | log2 fold change (Tubastatin A): inactive: 0.079 | log2 fold change [1]: inactive: -0.019 | log2 fold change (defactinib): inactive: -0.02 | log2 fold change [2]: inactive: -0.19 | log2 fold change (encorafenib): inactive: -0.01 | log2 fold change [3]: inactive: -0.004 | log2 fold change (alisertib): inactive: -0.039 | log2 fold change [4]: inactive: -0.005 | log2 fold change (gefitinib): inactive: 0.021

PRKD3 (UniProt O94806)
log2 fold change (alvocidib): inactive: -0.308 | log2 fold change (Tubastatin A): inactive: -0.014 | log2 fold change [1]: inactive: -0.066 | log2 fold change (defactinib): inactive: 0.059 | log2 fold change (encorafenib): inactive: 0.077 | log2 fold change [3]: inactive: 0.233 | log2 fold change (alisertib): inactive: 0.139 | log2 fold change [4]: inactive: 0.087 | log2 fold change (gefitinib): inactive: -0.051

PRKAR2B (UniProt P31323)
log2 fold change (alvocidib): inactive: 0 | log2 fold change (Tubastatin A): inactive: -0.021 | log2 fold change [1]: inactive: -0.05 | log2 fold change (defactinib): inactive: -0.117 | log2 fold change [2]: inactive: -0.023 | log2 fold change (encorafenib): inactive: 0.04 | log2 fold change [3]: inactive: 0.1 | log2 fold change (alisertib): inactive: -0.014 | log2 fold change [4]: inactive: -0.032 | log2 fold change (gefitinib): inactive: -0.046

PRKRIP1 (UniProt Q9H875)
log2 fold change (alvocidib): inactive: -0.018 | log2 fold change (Tubastatin A): inactive: 0.072 | log2 fold change [1]: inactive: 0.011 | log2 fold change (defactinib): inactive: 0.012 | log2 fold change [2]: inactive: 0.046 | log2 fold change (encorafenib): inactive: -0.003 | log2 fold change [3]: inactive: -0.023 | log2 fold change (alisertib): inactive: -0.021 | log2 fold change [4]: inactive: 0.01 | log2 fold change (gefitinib): inactive: 0.006
